Among the data in PMC5706863 are binding values, retold here.

Protein sequences, listed by entry. Tags and fused reporters are not part of them. Residues count along the entry.
UniProt Q15363, residues 21-201: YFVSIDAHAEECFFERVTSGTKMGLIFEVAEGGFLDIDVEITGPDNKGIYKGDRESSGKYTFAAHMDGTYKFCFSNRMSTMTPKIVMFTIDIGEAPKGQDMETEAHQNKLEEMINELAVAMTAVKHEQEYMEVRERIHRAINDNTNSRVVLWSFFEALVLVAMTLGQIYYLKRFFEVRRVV
UniProt P31751: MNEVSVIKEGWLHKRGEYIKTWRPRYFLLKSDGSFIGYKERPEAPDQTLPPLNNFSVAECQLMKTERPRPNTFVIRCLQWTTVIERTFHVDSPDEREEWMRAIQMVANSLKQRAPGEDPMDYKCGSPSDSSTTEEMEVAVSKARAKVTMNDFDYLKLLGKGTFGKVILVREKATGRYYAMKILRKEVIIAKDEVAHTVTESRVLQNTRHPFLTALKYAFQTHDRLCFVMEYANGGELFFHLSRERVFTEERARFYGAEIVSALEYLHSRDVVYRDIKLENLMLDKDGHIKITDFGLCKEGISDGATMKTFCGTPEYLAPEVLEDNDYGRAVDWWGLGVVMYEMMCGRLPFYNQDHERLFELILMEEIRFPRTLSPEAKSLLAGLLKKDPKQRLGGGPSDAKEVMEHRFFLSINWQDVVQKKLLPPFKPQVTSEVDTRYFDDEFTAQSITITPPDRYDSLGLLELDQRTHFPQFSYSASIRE

The assay deals with HA-TMED2 (UniProt Q15363). The experiment in a line: co-IP; cells co-transfected with Flag-AKT2 and HA-TMED2, harvested 24 h later; anti-HA immunoprecipitation, anti-Flag Western blot; single transfections as controls. Background: A western blot detects proteins with antibodies after separation by electrophoresis.

These are yes or no findings as the source states them, for the method shown. In cells and extracts the contact can be indirect. Some entries that bind do so weakly or less than the wild type.

Flag-AKT2 (from UniProt P31751 1-481): the binding entry was “binds”.
